Measured values reported in paper PMC4238977.
No constants are given. Whether binding was seen depends on the method and setting. For some assays here: Binding seen in cells or lysates may run through a third protein. Some entries that bind do so weakly or less than the wild type. Tags and fused reporters may be left off the sequences shown.

Assays:
[1] = target: T1, Bam (yeast 2-hybrid fusion) (Drosophila) (UniProt P22745); experiment: two-hybrid; yeast 2-hybrid; growth on SD/-Ade/-His/-Leu/-Trp with Aureobasidin A and X-alpha-Gal (QDO/X/A); SD/-Leu/-Trp (DDO) as control of transformation
T1 sequence: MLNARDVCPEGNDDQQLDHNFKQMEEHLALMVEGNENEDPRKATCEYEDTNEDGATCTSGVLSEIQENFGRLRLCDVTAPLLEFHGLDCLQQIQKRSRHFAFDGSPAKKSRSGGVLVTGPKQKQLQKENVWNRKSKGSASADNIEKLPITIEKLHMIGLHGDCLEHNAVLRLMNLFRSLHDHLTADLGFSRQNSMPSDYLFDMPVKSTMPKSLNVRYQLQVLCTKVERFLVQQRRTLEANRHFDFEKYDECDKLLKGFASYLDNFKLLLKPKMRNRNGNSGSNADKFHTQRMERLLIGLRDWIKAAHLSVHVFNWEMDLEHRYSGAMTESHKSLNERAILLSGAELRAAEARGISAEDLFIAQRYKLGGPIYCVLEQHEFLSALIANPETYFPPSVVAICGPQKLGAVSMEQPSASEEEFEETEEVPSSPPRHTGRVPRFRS

[2] = target: T2, Bgcn (yeast 2-hybrid fusion) (Drosophila) (UniProt Q9W1I2); experiment: as above
T2 sequence: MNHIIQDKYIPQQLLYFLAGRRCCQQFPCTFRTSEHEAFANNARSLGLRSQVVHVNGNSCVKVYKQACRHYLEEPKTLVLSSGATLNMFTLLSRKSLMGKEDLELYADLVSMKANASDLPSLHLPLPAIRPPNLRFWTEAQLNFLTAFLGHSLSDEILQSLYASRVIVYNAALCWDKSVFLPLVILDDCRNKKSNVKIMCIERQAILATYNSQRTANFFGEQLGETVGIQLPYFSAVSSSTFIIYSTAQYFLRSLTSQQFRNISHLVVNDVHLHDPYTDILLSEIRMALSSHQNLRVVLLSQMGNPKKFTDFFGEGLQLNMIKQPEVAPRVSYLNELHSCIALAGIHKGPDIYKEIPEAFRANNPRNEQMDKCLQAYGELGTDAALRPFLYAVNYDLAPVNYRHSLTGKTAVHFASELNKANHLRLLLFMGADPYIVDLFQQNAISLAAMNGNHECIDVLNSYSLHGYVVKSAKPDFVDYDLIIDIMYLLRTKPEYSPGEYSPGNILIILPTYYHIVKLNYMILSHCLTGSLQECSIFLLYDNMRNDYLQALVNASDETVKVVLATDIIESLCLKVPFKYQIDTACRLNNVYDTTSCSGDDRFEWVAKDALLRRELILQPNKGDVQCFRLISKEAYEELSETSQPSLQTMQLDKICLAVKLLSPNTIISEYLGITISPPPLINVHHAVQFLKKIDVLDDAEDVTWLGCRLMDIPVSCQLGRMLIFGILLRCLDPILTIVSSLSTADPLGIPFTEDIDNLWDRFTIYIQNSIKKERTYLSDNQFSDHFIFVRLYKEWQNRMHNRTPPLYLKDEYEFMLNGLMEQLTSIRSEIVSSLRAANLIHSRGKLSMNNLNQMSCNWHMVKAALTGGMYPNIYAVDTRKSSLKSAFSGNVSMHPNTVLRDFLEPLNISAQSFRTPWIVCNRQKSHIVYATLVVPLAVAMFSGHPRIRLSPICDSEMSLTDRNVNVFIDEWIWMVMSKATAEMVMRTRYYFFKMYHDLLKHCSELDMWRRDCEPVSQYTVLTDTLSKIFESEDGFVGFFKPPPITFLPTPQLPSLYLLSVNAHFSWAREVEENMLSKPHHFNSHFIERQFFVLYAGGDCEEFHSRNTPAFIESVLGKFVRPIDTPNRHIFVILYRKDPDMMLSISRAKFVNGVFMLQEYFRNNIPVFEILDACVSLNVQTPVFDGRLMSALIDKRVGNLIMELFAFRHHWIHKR

[3] = target: T3, Fragment containing N-terminal 100 amino acids of Bam, fused with BD (Drosophila) (UniProt P22745); experiment: as above
T3 sequence: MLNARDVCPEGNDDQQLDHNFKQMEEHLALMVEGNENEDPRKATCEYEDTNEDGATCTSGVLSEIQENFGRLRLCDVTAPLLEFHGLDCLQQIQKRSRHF

[4] = target: T4, Bam N-terminal fragment (Flag- or HA-tagged, S2 cells, Figure 5C-F) (Drosophila) (UniProt P22745); experiment: co-IP; S2 cells transfected with Flag- or HA-tagged constructs; lysates immunoprecipitated with anti-HA beads; Western blot
T4 sequence: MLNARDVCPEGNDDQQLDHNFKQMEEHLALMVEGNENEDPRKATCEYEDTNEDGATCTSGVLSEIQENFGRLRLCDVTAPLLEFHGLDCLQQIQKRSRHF

[5] = target: T5, Bgcn-GFP (Drosophila) (UniProt Q9W1I2); experiment: co-IP; testis extracts of bamP-bam-HA/+; bgcnP-bgcn-GFP/+ flies immunoprecipitated with anti-GFP beads; Western blot with anti-HA and anti-GFP
T5 sequence: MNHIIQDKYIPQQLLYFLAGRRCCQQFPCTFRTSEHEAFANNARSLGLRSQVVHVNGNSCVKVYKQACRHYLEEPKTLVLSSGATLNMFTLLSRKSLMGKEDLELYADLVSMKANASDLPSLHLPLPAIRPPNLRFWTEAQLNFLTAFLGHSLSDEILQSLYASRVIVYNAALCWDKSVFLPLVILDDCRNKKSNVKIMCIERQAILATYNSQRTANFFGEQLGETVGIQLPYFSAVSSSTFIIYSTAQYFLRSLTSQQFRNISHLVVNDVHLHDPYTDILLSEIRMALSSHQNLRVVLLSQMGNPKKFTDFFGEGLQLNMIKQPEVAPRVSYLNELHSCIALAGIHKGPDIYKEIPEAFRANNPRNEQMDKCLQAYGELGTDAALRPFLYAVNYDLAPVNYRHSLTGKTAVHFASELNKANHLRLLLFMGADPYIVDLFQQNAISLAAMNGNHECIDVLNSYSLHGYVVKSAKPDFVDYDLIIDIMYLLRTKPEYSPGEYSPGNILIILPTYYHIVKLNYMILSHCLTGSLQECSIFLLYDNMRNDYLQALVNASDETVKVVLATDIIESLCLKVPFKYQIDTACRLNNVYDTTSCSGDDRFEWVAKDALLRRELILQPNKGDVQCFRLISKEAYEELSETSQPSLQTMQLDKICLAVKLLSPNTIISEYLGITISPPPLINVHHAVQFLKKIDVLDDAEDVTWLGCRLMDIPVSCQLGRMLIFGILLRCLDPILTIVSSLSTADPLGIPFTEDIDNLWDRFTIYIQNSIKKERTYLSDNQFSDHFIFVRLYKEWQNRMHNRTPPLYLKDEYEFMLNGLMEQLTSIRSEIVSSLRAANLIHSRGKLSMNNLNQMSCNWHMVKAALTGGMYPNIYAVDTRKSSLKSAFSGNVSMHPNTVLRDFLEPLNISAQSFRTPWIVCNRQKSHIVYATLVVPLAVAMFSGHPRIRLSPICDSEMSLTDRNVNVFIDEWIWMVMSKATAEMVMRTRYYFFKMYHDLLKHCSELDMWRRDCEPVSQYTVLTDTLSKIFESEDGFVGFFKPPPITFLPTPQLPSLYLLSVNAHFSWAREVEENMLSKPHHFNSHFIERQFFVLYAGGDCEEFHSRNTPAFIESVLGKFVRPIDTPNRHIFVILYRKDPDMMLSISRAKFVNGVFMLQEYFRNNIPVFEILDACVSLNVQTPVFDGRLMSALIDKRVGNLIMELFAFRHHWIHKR

B1: AD-Tut (protein, UniProt Q8IQA2 1-230)
chain: MDFESKYCTSQVNGTITITTRKVLDENLKSLLDEGKGELFLSCIPRNHSCSPRWIVEVASELGEVYIMRYKIDFSGNSRGYAYLQYINVDLKESAMQYLPMRFRQLCMCLRVEPSTNNRELVLKNVESSLRPWQVYQEMLKIHPFTIVRVYEYQLDQFFYIFEYRNNDSAASAHQRVRNSIRKFGEHAHISWLTAENILSRASGSFCFQREVSQNRTRRVPPRQKGCFKF
B1 was tested, and the binding [1] was “binds”, the binding [2] was “no binding” and the binding [3] was “binds”.

B2: Tut (Flag- or HA-tagged, S2 cells, Figure 5C-F) (protein, UniProt Q8IQA2 1-230)
chain: MDFESKYCTSQVNGTITITTRKVLDENLKSLLDEGKGELFLSCIPRNHSCSPRWIVEVASELGEVYIMRYKIDFSGNSRGYAYLQYINVDLKESAMQYLPMRFRQLCMCLRVEPSTNNRELVLKNVESSLRPWQVYQEMLKIHPFTIVRVYEYQLDQFFYIFEYRNNDSAASAHQRVRNSIRKFGEHAHISWLTAENILSRASGSFCFQREVSQNRTRRVPPRQKGCFKF
In the case of B2, the binding [4] is reported as “binds”.

B3: Bam-HA (protein, UniProt P22745 1-442)
chain: MLNARDVCPEGNDDQQLDHNFKQMEEHLALMVEGNENEDPRKATCEYEDTNEDGATCTSGVLSEIQENFGRLRLCDVTAPLLEFHGLDCLQQIQKRSRHFAFDGSPAKKSRSGGVLVTGPKQKQLQKENVWNRKSKGSASADNIEKLPITIEKLHMIGLHGDCLEHNAVLRLMNLFRSLHDHLTADLGFSRQNSMPSDYLFDMPVKSTMPKSLNVRYQLQVLCTKVERFLVQQRRTLEANRHFDFEKYDECDKLLKGFASYLDNFKLLLKPKMRNRNGNSGSNADKFHTQRMERLLIGLRDWIKAAHLSVHVFNWEMDLEHRYSGAMTESHKSLNERAILLSGAELRAAEARGISAEDLFIAQRYKLGGPIYCVLEQHEFLSALIANPETYFPPSVVAICGPQKLGAVSMEQPSASEEEFEETEEVPSSPPRHTGRVPRFRS
With B3 the binding [5] was “binds”.
